Results reported in publication PMC3384615.
These are yes or no findings as the source states them, for the method shown. Binding seen in cells or lysates may run through a third protein. Some results given as binding are weak or reduced against the parent protein; the word gives no strength.

Target: epidermal growth factor receptor (EGFR), endogenous in YAMC mouse colonocytes (mouse (endogenous in YAMC)) (UniProt Q01279)
Assay: cross-linking; YAMC cells (untreated, LA or DHA treated, low serum) incubated with 0 or 25 ng/mL EGF on ice for 1 h, then 3 mM BS3 (non-permeable) on ice for 20 min, quenched with 250 mM glycine; lysates Western blotted for EGFR

epidermal growth factor receptor (EGFR), endogenous in YAMC mouse colonocytes (from UniProt Q01279 25-1210)
binding: binds
